From PubChem BioAssay AID186 (DTP/NCI, 2004)
The mice bore no tumour; each value counts animals alive of those treated. Survivors were counted at the toxicity check, usually on the fifth day, unless a day is given; later deaths do not show. Schedule codes are those of the source, read here as Q, the interval in days (D) or hours (H), X, the number of doses. Counts like (3×) say how often a value occurs here. Some entries hold several experiments; the results are listed from low to high.

System: B6D2F1 mice, nontumored toxicity test, survival
Assay: NCI In Vivo Anticancer Drug Screen. Data for tumor model Nontumored Animals (Toxicity Test) in B6D2F1 (BDF1) mice

Structure (SMILES): O=NN(CCCl)C(=O)NCCCl
- survivor count (dose: 2.5 mg/kg/injection, schedule: Q04DX003 (ip), vehicle: saline + alcohol): 4 of 4
- survivor count (dose: 5.0 mg/kg/injection, schedule: Q04DX003 (ip), vehicle: saline + alcohol): 4 of 4
- survivor count (dose: 8.0 mg/kg/injection, schedule: Q01DX001 (ip), vehicle: saline + alcohol): 4 of 4
- survivor count (dose: 9.4 mg/kg/injection, schedule: Q01DX001 (ip), vehicle: saline + alcohol): 10 of 10
- survivor count (dose: 10.0 mg/kg/injection, schedule: Q04DX003 (ip), vehicle: saline + alcohol): 4 of 4
- survivor count (dose: 16.0 mg/kg/injection, schedule: Q01DX001 (ip), vehicle: saline + alcohol): 4 of 4
- survivor count (dose: 18.75 mg/kg/injection, schedule: Q01DX001 (ip), vehicle: saline + alcohol): 10 of 10
- survivor count (dose: 20.0 mg/kg/injection, schedule: Q01DX001 (ip), vehicle: saline + alcohol): 10 of 10
- survivor count (dose: 20.0 mg/kg/injection, schedule: Q04DX003 (ip), vehicle: saline + alcohol): 4 of 4
- survivor count (dose: 24.0 mg/kg/injection, schedule: Q01DX009 (sc), vehicle: saline): 8 of 8
- survivor count (dose: 30.0 mg/kg/injection, schedule: Q01DX001 (ip), vehicle: saline + alcohol): 10 of 10 (2×)
- survivor count (dose: 32.0 mg/kg/injection, schedule: Q01DX001 (ip), vehicle: saline + alcohol): 4 of 4
- survivor count (dose: 37.5 mg/kg/injection, schedule: Q01DX001 (ip), vehicle: saline + alcohol): 10 of 10
- survivor count (dose: 40.0 mg/kg/injection, schedule: Q01DX001 (ip), vehicle: saline + alcohol): 10 of 10 (2×)
- survivor count (dose: 48.0 mg/kg/injection, schedule: Q01DX009 (sc), vehicle: saline): 8 of 8
- survivor count (dose: 64.0 mg/kg/injection, schedule: Q01DX001 (ip), vehicle: saline + alcohol): 4 of 4
- survivor count (dose: 75.0 mg/kg/injection, schedule: Q01DX001 (ip), vehicle: saline + alcohol): 10 of 10

Structure (SMILES): COC(C(=O)C(O)C(C)O)C1CC2C=C3C=C(OC4CC(OC5CC(O)C(OC)C(C)O5)C(OC(C)=O)C(C)O4)C(C)C(=O)C3=C(O)C2=C(O)C1OC1CC(OC2CC(OC3CC(C)(O)C(OC(=O)C(C)C)C(C)O3)C(O)C(C)O2)C(O)C(C)O1 (configuration not stated)
- survivor count (dose: 31.2 micrograms/kg/injection, schedule: Q01DX001 (ip), vehicle: saline): 8 of 8
- survivor count (dose: 31.2 micrograms/kg/injection, schedule: Q01DX009 (ip), vehicle: saline): 8 of 8
- survivor count (dose: 31.2 micrograms/kg/injection, schedule: Q04DX003 (ip), vehicle: saline): 8 of 8
- survivor count (dose: 31.2 micrograms/kg/injection, schedule: Q08DX002 (ip), vehicle: saline): 8 of 8
- survivor count (dose: 62.5 micrograms/kg/injection, schedule: Q01DX001 (ip), vehicle: saline): 8 of 8
- survivor count (dose: 62.5 micrograms/kg/injection, schedule: Q01DX009 (ip), vehicle: saline): 7 of 8
- survivor count (dose: 62.5 micrograms/kg/injection, schedule: Q04DX003 (ip), vehicle: saline): 8 of 8
- survivor count (dose: 62.5 micrograms/kg/injection, schedule: Q08DX002 (ip), vehicle: saline): 8 of 8
- survivor count (dose: 125.0 micrograms/kg/injection, schedule: Q01DX001 (ip), vehicle: saline): 7 of 8
- survivor count (dose: 125.0 micrograms/kg/injection, schedule: Q01DX009 (ip), vehicle: saline): 6 of 8
- survivor count (dose: 125.0 micrograms/kg/injection, schedule: Q04DX003 (ip), vehicle: saline): 8 of 8
- survivor count (dose: 125.0 micrograms/kg/injection, schedule: Q08DX002 (ip), vehicle: saline): 8 of 8
- survivor count (dose: 250.0 micrograms/kg/injection, schedule: Q01DX001 (ip), vehicle: saline): 8 of 8
- survivor count (dose: 250.0 micrograms/kg/injection, schedule: Q01DX009 (ip), vehicle: saline): 5 of 8
- survivor count (dose: 250.0 micrograms/kg/injection, schedule: Q04DX003 (ip), vehicle: saline): 8 of 8
- survivor count (dose: 250.0 micrograms/kg/injection, schedule: Q08DX002 (ip), vehicle: saline): 8 of 8
- survivor count (dose: 500.0 micrograms/kg/injection, schedule: Q01DX001 (ip), vehicle: saline): 6 of 8
- survivor count (dose: 500.0 micrograms/kg/injection, schedule: Q01DX009 (ip), vehicle: saline): 4 of 8
- survivor count (dose: 500.0 micrograms/kg/injection, schedule: Q04DX003 (ip), vehicle: saline): 6 of 8
- survivor count (dose: 500.0 micrograms/kg/injection, schedule: Q08DX002 (ip), vehicle: saline): 3 of 8
- survivor count (dose: 1000.0 micrograms/kg/injection, schedule: Q01DX001 (ip), vehicle: saline): 5 of 8
- survivor count (dose: 1000.0 micrograms/kg/injection, schedule: Q01DX009 (ip), vehicle: saline): 0 of 8
- survivor count (dose: 1000.0 micrograms/kg/injection, schedule: Q04DX003 (ip), vehicle: saline): 6 of 8
- survivor count (dose: 1000.0 micrograms/kg/injection, schedule: Q08DX002 (ip), vehicle: saline): 8 of 8

Structure (SMILES): Nc1ncnc2c1ncn2C1CC(O)C(CO)O1 (configuration not stated)
- survivor count (dose: 150.0 mg/kg/injection, schedule: Q03HX024 (ip), vehicle: saline with Tween-80): 5 of 5
- survivor count (dose: 220.0 mg/kg/injection, schedule: Q03HX024 (ip), vehicle: saline with Tween-80): 5 of 5
- survivor count (dose: 330.0 mg/kg/injection, schedule: Q03HX024 (ip), vehicle: saline with Tween-80): 5 of 5
- survivor count (dose: 440.0 mg/kg/injection, schedule: Q03HX024 (ip), vehicle: saline with Tween-80): 5 of 5
- survivor count (dose: 660.0 mg/kg/injection, schedule: Q03HX024 (ip), vehicle: saline with Tween-80): 5 of 5

Structure (SMILES): CC(=O)NC(CS)C(=O)O (configuration not stated)
- survivor count (dose: 250.0 mg/kg/injection, schedule: Q01DX001 (ip), vehicle: saline): 8 of 8
- survivor count (dose: 500.0 mg/kg/injection, schedule: Q01DX001 (ip), vehicle: saline): 8 of 8
- survivor count (dose: 600.0 mg/kg/injection, schedule: Q01DX001 (ip), vehicle: saline): 6 of 6
- survivor count (dose: 600.0 mg/kg/injection, schedule: Q01DX015 (ip), vehicle: saline): 6 of 6
- survivor count (dose: 600.0 mg/kg/injection, schedule: Q07DX003 (ip), vehicle: saline): 6 of 6
- survivor count (dose: 750.0 mg/kg/injection, schedule: Q01DX001 (ip), vehicle: saline): 8 of 8
- survivor count (dose: 1000.0 mg/kg/injection, schedule: Q01DX001 (ip), vehicle: saline): 6 of 6 and 8 of 8
- survivor count (dose: 1000.0 mg/kg/injection, schedule: Q01DX015 (ip), vehicle: saline): 6 of 6
- survivor count (dose: 1000.0 mg/kg/injection, schedule: Q07DX003 (ip), vehicle: saline): 6 of 6
- survivor count (dose: 1500.0 mg/kg/injection, schedule: Q01DX001 (ip), vehicle: saline): 6 of 6 and 8 of 8
- survivor count (dose: 2000.0 mg/kg/injection, schedule: Q01DX001 (ip), vehicle: saline): 7 of 8 and 8 of 8
